Measurements taken from PubChem BioAssay AID977622 (Broad Institute, 2014).
In all, about 1,900 compounds went through this assay and fewer than 10 were called active. Roughly 39% stayed inconclusive and do not appear here.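 How the source made its calls: active means Green signal of the normal strain falls at least twice as much as red signal of the resistant mutant, with overall culture growth loss under a set limit; inconclusive means no clear call, values can overlap the other calls; inactive means the rest.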 This is a selection; strong and weak results do not stand in their true shares.

Assay: wild-type E. coli growth inhibition versus h38 humanized strain – h38 mutant RFP, wild-type GFP, cherry-pick, dose response (AID 977622)
Conditions: E. coli WT ribosome GFP fluorescence, mixed culture, 24 h; at 50 µM (top of the series)

SMILES | activity change, negative = inhibition
Nc1c(C(=O)NCCN2CCOCC2)c2nc3ccccc3nc2n1Cc1ccccc1 | inactive: -4.29
CC(=O)OC1N=C(c2ccccc2Cl)c2cc(Br)ccc2NC1=O (centres undefined) | inactive: -11.7
Cc1c(C(=O)Nc2ccccc2)c2cc(O)ccc2n1Cc1ccccc1 | inactive: 1.39
CN1CCC(c2c[nH]c3ccccc23)C1 (centres undefined) | inactive: 0.997
